PubChem BioAssay AID1259298, Sanger Institute, 2017
Here is a random part of 794 deposited reagents. Of all reagents, 20 (2.5%) are marked active. 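Calls rest only on the knock-down-alone score; drug synergy scores played no part in them.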 Entries without a mark were called inactive. No viability above 1 is reported: the scale is capped. Not stated in the record: the amount of reagent, the time to read-out.

Screen: 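Kinase knock-downs that cut colorectal cancer cell viability or act with targeted drugs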 (primary screen)
System: HT55 human colorectal cancer cell line
Reagent: siRNA pool against human genes
Conditions: anchor drug BYL719 1 µM, cetuximab 5 µg/ml or trametinib 10 nM, or DMSO vehicle alone
Read-out: 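Mean viability over replicates versus non-targeting pool, a robust z-score without drug, and per-drug synergy scores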
Scale: robust z-score, knock-down alone: higher = more cells remaining; low means essential gene; viability vs control pool, no drug: higher = more viable cells; synergy score with BYL719 and synergy score with cetuximab and synergy score with trametinib: higher = stronger synthetic lethality with the drug
Hit rule: 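Essential when the robust z-score for knock-down alone with DMSO is below -3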
Calls: active = essential (knock-down alone); inactive = no change alone

| Gene | robust z-score, knock-down alone | viability vs control pool, no drug (fraction) | synergy score with BYL719 | synergy score with cetuximab | synergy score with trametinib |
| --- | --- | --- | --- | --- | --- |
| MAPK10 | 0.58 | 1 | -0.206 | -0.211 | -0.0848 |
| PIP5K1C | -1.09 | 0.869 | -0.168 | -0.108 | -0.0893 |
| CPNE3 | 0.58 | 1 | -0.0747 | -0.0231 | 0.0524 |
| HK1 | -0.748 | 0.896 | -0.209 | -0.293 | -0.145 |
| CERK | 0.58 | 1 | -0.272 | -0.0868 | -0.0706 |
| PANK3 | 0.58 | 1 | -0.272 | -0.0416 | -0.129 |
| CASP8 | 0.58 | 1 | -0.198 | -0.211 | -0.0457 |
| ERBB3 | 0.58 | 1 | -0.231 | -0.158 | 0.00532 |
| TJP2 | 0.58 | 1 | -0.137 | -0.211 | 0.0538 |
| MAP2K2 | -0.427 | 0.921 | -0.169 | -0.168 | 0.0545 |
| RIPK2 | 0.58 | 1 | -0.0955 | -0.0369 | 0.0302 |
| SRGAP3 | 0.58 | 1 | -0.198 | -0.0723 | 0.0748 |
| LIMK1 | 0.58 | 1 | -0.211 | 0.0514 | 0.000178 |
| NAGK | -1.36 | 0.848 | -0.194 | -0.186 | -0.106 |
| DGKB | -0.808 | 0.891 | -0.109 | 0.0643 | 0.0108 |
| FASTK | 0.38 | 0.984 | -0.148 | -0.202 | -0.0697 |
| SYNCRIP | -1.61 | 0.829 | -0.0179 | -0.0474 | -0.0118 |
| CDADC1 | 0.58 | 1 | -0.21 | -0.211 | -0.00447 |
| SPEG | -0.268 | 0.934 | -0.305 | -0.264 | -0.0644 |
| OBSCN | 0.58 | 1 | -0.268 | -0.182 | -0.165 |
| CDK10 | 0.58 | 1 | -0.111 | -0.149 | -0.0998 |
| STK31 | 0.58 | 1 | -0.0982 | -0.158 | 0.0484 |
| PTK2B | 0.58 | 1 | -0.219 | 0.0838 | 0.0788 |
| IP6K2 | 0.58 | 1 | -0.104 | -0.153 | 0.011 |
| MAP2K6 | 0.58 | 1 | -0.116 | -0.113 | -0.087 |
| PRKDC | 0.58 | 1 | -0.0646 | 0.128 | 0.0394 |
| CDC42BPA | -2.76 | 0.738 | -0.269 | -0.165 | -0.0798 |
| JAK3 | 0.58 | 1 | -0.242 | -0.111 | -0.0675 |
| MAPK13 | 0.58 | 1 | -0.238 | -0.211 | 0.0568 |
| PIK3CB | -0.989 | 0.877 | -0.0113 | 0.173 | 0.0158 |
| SIK2 | 0.58 | 1 | -0.0872 | -0.155 | -0.0288 |
| MAP2K3 | 0.58 | 1 | -0.043 | -0.0811 | 0.0734 |
| IPMK | 0.58 | 1 | -0.128 | -0.0102 | 0.00876 |
| PGK1 | 0.58 | 1 | -0.164 | -0.00563 | -0.0229 |
| PIK3CG | 0.58 | 1 | -0.189 | -0.0415 | 0.0257 |
| RPS6KL1 | 0.58 | 1 | -0.078 | -0.2 | 0.0171 |
| CDK5R1 | -0.309 | 0.931 | -0.147 | -0.105 | 0.0355 |
| MAP2K5 | 0.58 | 1 | -0.224 | -0.211 | -0.0435 |
| TEX14 | 0.58 | 1 | -0.241 | -0.113 | -0.0227 |
| PRKY | -0.375 | 0.925 | -0.179 | 0.0822 | 0.00716 |
| LCK | 0.58 | 1 | -0.205 | -0.0064 | -0.0235 |
| PPP2R1A | 0.58 | 1 | -0.272 | -0.211 | 0.045 |
| MAPK12 | 0.58 | 1 | -0.239 | -0.211 | -0.0104 |
| CDK8 | 0.58 | 1 | -0.272 | -0.187 | -0.192 |
| PRKACA | 0.58 | 1 | -0.135 | -0.0703 | 0.0167 |
| RYK | 0.58 | 1 | -0.272 | -0.211 | -0.0863 |
| NME7 | 0.58 | 1 | -0.216 | -0.211 | -0.171 |
| CKM | 0.58 | 1 | -0.237 | -0.211 | -0.0311 |
| PDK1 | 0.58 | 1 | -0.0479 | -0.127 | 0.0877 |
| CDK20 | -0.546 | 0.912 | 0.0133 | -0.129 | 0.046 |
| STK32A | 0.58 | 1 | -0.178 | -0.211 | -0.143 |
| CSNK2A2 | -2.12 | 0.789 | -0.273 | -0.22 | -0.0988 |
| MYLK3 | -1.43 | 0.843 | -0.115 | -0.14 | 0.116 |
| SMG1 | -2.11 | 0.79 | -0.266 | -0.141 | -0.00707 |
| PRPS2 | 0.58 | 1 | -0.104 | -0.195 | -0.0466 |
| MYO3A | -1.45 | 0.841 | -0.0558 | -0.303 | -0.135 |
| BTK | -0.889 | 0.885 | -0.265 | -0.0464 | 0.149 |
| NUP62 | -0.24 | 0.936 | -0.216 | -0.0644 | -0.0419 |
| DSTYK | 0.58 | 1 | -0.209 | -0.211 | -0.0723 |
| RAD21 | 0.114 | 0.964 | -0.0768 | -0.171 | -0.0238 |
| PSKH1 | 0.58 | 1 | -0.247 | -0.0934 | 0.0645 |
| DNMT3A | -0.954 | 0.88 | -0.284 | -0.306 | -0.0309 |
| AURKA | -4.9 (active) | 0.571 | -0.549 | -0.163 | -0.171 |
